B1: NINJ1 (protein, UniProt Q92982 1-152, looked up)
Ninjurin-1: MDSGTEEYELNGGLPPGTPGSPDASPARWGWRHGPINVNHYASKKSAAESMLDIALLMANASQLKAVVEQGPSFAFYVPLVVLISISLVLQIGVGVLLIFLVKYDLNNPAKHAKLDFLNNLATGLVFIIVVVNIFITAFGVQKPLMDMAPQQ
B2: VWC2 (protein, UniProt Q2TAL6 28-325, looked up)
Brorin: SPSIPLEKLAQAPEQPGQEKREHASRDGPGRVNELGRPARDEGGSGRDWKSKSGRGLAGREPWSKLKQAWVSQGGGAKAGDLQVRPRGDTPQAEALAAAAQDAIGPELAPTPEPPEEYVYPDYRGKGCVDESGFVYAIGEKFAPGPSACPCLCTEEGPLCAQPECPRLHPRCIHVDTSQCCPQCKERKNYCEFRGKTYQTLEEFVVSPCERCRCEANGEVLCTVSACPQTECVDPVYEPDQCCPICKNGPNCFAETAVIPAGREVKTDECTICHCTYEEGTWRIERQAMCTRHECRQM
B3: CNDP1 (protein, UniProt Q96KN2 27-507, looked up)
Beta-Ala-His dipeptidase: SPSPPPALLEKVFQYIDLHQDEFVQTLKEWVAIESDSVQPVPRFRQELFRMMAVAADTLQRLGARVASVDMGPQQLPDGQSLPIPPVILAELGSDPTKGTVCFYGHLDVQPADRGDGWLTDPYVLTEVDGKLYGRGATDNKGPVLAWINAVSAFRALEQDLPVNIKFIIEGMEEAGSVALEELVEKEKDRFFSGVDYIVISDNLWISQRKPAITYGTRGNSYFMVEVKCRDQDFHSGTFGGILHEPMADLVALLGSLVDSSGHILVPGIYDEVVPLTEEEINTYKAIHLDLEEYRNSSRVEKFLFDTKEEILMHLWRYPSLSIHGIEGAFDEPGTKTVIPGRVIGKFSIRLVPHMNVSAVEKQVTRHLEDVFSKRNSSNKMVVSMTLGLHPWIANIDDTQYLAAKRAIRTVFGTEPDMIRDGSTIPIAKMFQEIVHKSVVLIPLGAVDDGEHSQNEKINRWNYIEGTKLFAAFFLEMAQLH
B4: CLM-1 (protein, UniProt Q8TDQ1 20-290, looked up)
CMRF35-like molecule 1: TQITGPTTVNGLERGSLTVQCVYRSGWETYLKWWCRGAIWRDCKILVKTSGSEQEVKRDRVSIKDNQKNRTFTVTMEDLMKTDADTYWCGIEKTGNDLGVTVQVTIDPAPVTQEETSSSPTLTGHHLDNRHKLLKLSVLLPLIFTILLLLLVAASLLAWRMMKYQQKAAGMSPEQVLQPLEGDLCYADLTLQLAGTSPQKATTKLSSAQVDQVEVEYVTMASLPKEDISYASLTLGAEDQEPTYCNMGHLSSHLPGRGPEEPTEYSTISRP
B5: CRTAM (protein, UniProt O95727 18-393, looked up)
Cytotoxic and regulatory …: SLTNHTETITVEEGQTLTLKCVTSLRKNSSLQWLTPSGFTIFLNEYPALKNSKYQLLHHSANQLSITVPNVTLQDEGVYKCLHYSDSVSTKEVKVIVLATPFKPILEASVIRKQNGEEHVVLMCSTMRSKPPPQITWLLGNSMEVSGGTLHEFETDGKKCNTTSTLIIHTYGKNSTVDCIIRHRGLQGRKLVAPFRFEDLVTDEETASDALERNSLSSQDPQQPTSTVSVTEDSSTSEIDKEEKEQTTQDPDLTTEANPQYLGLARKKSGILLLTLVSFLIFILFIIVQLFIMKLRKAHVIWKKENEVSEHTLESYRSRSNNEETSSEEKNGQSSHPMRCMNYITKLYSEAKTKRKENVQHSKLEEKHIQVPESIV
B6: SCGB3A1 (protein, UniProt Q96QR1 21-104, looked up)
Secretoglobin family 3A …: FLVGSAKPVAQPVAALESAAEAGAGTLANPLGTLNPLKLLLSSLGIPVNHLIEGSQKCVAELGPQAVGAVKALKALLGALTVFG
B7: PVALB (protein, UniProt P20472 2-110, looked up)
Parvalbumin alpha: SMTDLLNAEDIKKAVGAFSATDSFDHKKFFQMVGLKKKSADDVKKVFHMLDKDKSGFIEEDELGFILKGFSPDARDLSAKETKMLMAAGDKDGDGKIGVDEFSTLVAES
B8: CKAP4 (protein, UniProt Q07065 1-602, looked up)
Cytoskeleton-associated …: MPSAKQRGSKGGHGAASPSEKGAHPSGGADDVAKKPPPAPQQPPPPPAPHPQQHPQQHPQNQAHGKGGHRGGGGGGGKSSSSSSASAAAAAAAASSSASCSRRLGRALNFLFYLALVAAAAFSGWCVHHVLEEVQQVRRSHQDFSRQREELGQGLQGVEQKVQSLQATFGTFESILRSSQHKQDLTEKAVKQGESEVSRISEVLQKLQNEILKDLSDGIHVVKDARERDFTSLENTVEERLTELTKSINDNIAIFTEVQKRSQKEINDMKAKVASLEESEGNKQDLKALKEAVKEIQTSAKSREWDMEALRSTLQTMESDIYTEVRELVSLKQEQQAFKEAADTERLALQALTEKLLRSEESVSRLPEEIRRLEEELRQLKSDSHGPKEDGGFRHSEAFEALQQKSQGLDSRLQHVEDGVLSMQVASARQTESLESLLSKSQEHEQRLAALQGRLEGLGSSEADQDGLASTVRSLGETQLVLYGDVEELKRSVGELPSTVESLQKVQEQVHTLLSQDQAQAARLPPQDFLDRLSSLDNLKASVSQVEADLKMLRTAVDSLVAYSVKIETNENNLESAKGLLDDLRNDLDRLFVKVEKIHEKV
B9: ANG-1 (protein, UniProt Q15389 16-498, looked up)
Angiopoietin-1: HIGCSNQRRSPENSGRRYNRIQHGQCAYTFILPEHDGNCRESTTDQYNTNALQRDAPHVEPDFSSQKLQHLEHVMENYTQWLQKLENYIVENMKSEMAQIQQNAVQNHTATMLEIGTSLLSQTAEQTRKLTDVETQVLNQTSRLEIQLLENSLSTYKLEKQLLQQTNEILKIHEKNSLLEHKILEMEGKHKEELDTLKEEKENLQGLVTRQTYIIQELEKQLNRATTNNSVLQKQQLELMDTVHNLVNLCTKEGVLLKGGKREEEKPFRDCADVYQAGFNKSGIYTIYINNMPEPKKVFCNMDVNGGGWTVIQHREDGSLDFQRGWKEYKMGFGNPSGEYWLGNEFIFAITSQRQYMLRIELMDWEGNRAYSQYDRFHIGNEKQNYRLYLKGHTGTAGKQSSLILHGADFSTKDADNDNCMCKCALMLTGGWWFDACGPSNLNGMFYTAGQNHGKLNGIKWHYFKGPSYSLRSTTMMIRPLDF
B10: SLAMF8 (protein, UniProt Q9P0V8 23-285, looked up)
SLAM family member 8: AQVLSKVGGSVLLVAARPPGFQVREAIWRSLWPSEELLATFFRGSLETLYHSRFLGRAQLHSNLSLELGPLESGDSGNFSVLMVDTRGQPWTQTLQLKVYDAVPRPVVQVFIAVERDAQPSKTCQVFLSCWAPNISEITYSWRRETTMDFGMEPHSLFTDGQVLSISLGPGDRDVAYSCIVSNPVSWDLATVTPWDSCHHEAAPGKASYKDVLLVVVPVSLLLMLVTLFSAWHWCPCSGKKKKDVHADRVGPETENPLVQDLP
B11: SERPINA5 (protein, UniProt P05154 26-406, looked up)
Plasma serine protease …: EMKKRVEDLHVGATVAPSSRRDFTFDLYRALASAAPSQSIFFSPVSISMSLAMLSLGAGSSTKMQILEGLGLNLQKSSEKELHRGFQQLLQELNQPRDGFQLSLGNALFTDLVVDLQDTFVSAMKTLYLADTFPTNFRDSAGAMKQINDYVAKQTKGKIVDLLKNLDSNAVVIMVNYIFFKAKWETSFNHKGTQEQDFYVTSETVVRVPMMSREDQYHYLLDRNLSCRVVGVPYQGNATALFILPSEGKMQQVENGLSEKTLRKWLKMFKKRQLELYLPKFSIEGSYQLEKVLPSLGISNVFTSHADLSGISNHSNIQVSEMVHKAVVEVDESGTRAAAATGTIFTFRSARLNSQRLVFNRPFLMFIVDNNILFLGKVNRP
B12: NEP (protein, UniProt P08473 2-750, looked up)
Neprilysin: GKSESQMDITDINTPKPKKKQRWTPLEISLSVLVLLLTIIAVTMIALYATYDDGICKSSDCIKSAARLIQNMDATTEPCTDFFKYACGGWLKRNVIPETSSRYGNFDILRDELEVVLKDVLQEPKTEDIVAVQKAKALYRSCINESAIDSRGGEPLLKLLPDIYGWPVATENWEQKYGASWTAEKAIAQLNSKYGKKVLINLFVGTDDKNSVNHVIHIDQPRLGLPSRDYYECTGIYKEACTAYVDFMISVARLIRQEERLPIDENQLALEMNKVMELEKEIANATAKPEDRNDPMLLYNKMTLAQIQNNFSLEINGKPFSWLNFTNEIMSTVNISITNEEDVVVYAPEYLTKLKPILTKYSARDLQNLMSWRFIMDLVSSLSRTYKESRNAFRKALYGTTSETATWRRCANYVNGNMENAVGRLYVEAAFAGESKHVVEDLIAQIREVFIQTLDDLTWMDAETKKRAEEKALAIKERIGYPDDIVSNDNKLNNEYLELNYKEDEYFENIIQNLKFSQSKQLKKLREKVDKDEWISGAAVVNAFYSSGRNQIVFPAGILQPPFFSAQQSNSLNYGGIGMVIGHEITHGFDDNGRNFNKDGDLVDWWTQQSASNFKEQSQCMVYQYGNFSWDLAGGQHLNGINTLGENIADNGGLGQAYRAYQNYIKKNGEEKLLPGLDLNHKQLFFLNFAQVWCGTYRPEYAVNSIKTDVHSPGNFRIIGTLQNSAEFSEAFHCRKNSYMNPEKKCRVW
B13: hK14 (protein, UniProt Q9P0G3 41-267, looked up)
Kallikrein-14: IIGGHTCTRSSQPWQAALLAGPRRRFLCGGALLSGQWVITAAHCGRPILQVALGKHNLRRWEATQQVLRVVRQVTHPNYNSRTHDNDLMLLQLQQPARIGRAVRPIEVTQACASPGTSCRVSGWGTISSPIARYPASLQCVNINISPDEVCQKAYPRTITPGMVCAGVPQGGKDSCQGDSGGPLVCRGQLQGLVSWGMERCALPGYPGVYTNLCKYRSWIEETMRDK
B14: FAM3B (protein, UniProt P58499 30-235, looked up)
Protein FAM3B: ELIPDAPLSSAAYSIRSIGERPVLKAPVPKRQKCDHWTPCPSDTYAYRLLSGGGRSKYAKICFEDNLLMGEQLGNVARGINIAIVNYVTGNVTATRCFDMYEGDNSGPMTKFIQSAAPKSLLFMVTYDDGSTRLNNDAKNAIEALGSKEIRNMKFRSSWVFIAAKGLELPSEIQREKINHSDAKNNRYSGWPAEIQIEGCIPKERS
B15: VEGFD (protein, UniProt O43915 89-205, looked up)
Vascular endothelial growth …: FAATFYDIETLKVIDEEWQRTQCSPRETCVEVASELGKSTNTFFKPPCVNVFRCGGCCNEESLICMNTSTSYISKQLFEISVPLTSVPELVPVKVANHTGCKCLPTAPRHPYSIIRR
B16: SCGB3A2 (protein, UniProt Q96PL1 22-93, looked up)
Secretoglobin family 3A …: FLINKVPLPVDKLAPLPLDNILPFMDPLKLLLKTLGISVEHLVEGLRKCVNELGPEASEAVKKLLEALSHLV

What follows are molecules tested on plasma proteins (assay: OLINK proximity extension assay of baseline plasma, CR compared to PD/Death, updated classification, Example 5 (Table 11)). Conditions: itacitinib 200 or 300 mg QD plus corticosteroids, response at day 28.
Assay type: in vivo, human

| Molecule | Fold Change, Down-Regulated in CR Compared to PD/Death | Fold Change, Up-Regulated in CR Compared to PD/Death |
| --- | --- | --- |
| B1 | −2.3018 |  |
| B2 |  | 1.7842 |
| B3 |  | 1.5685 |
| B4 | −2.2069 |  |
| B5 | −3.2086 |  |
| B6 |  | 3.1352 |
| B7 |  | 2.6266 |
| B8 | −2.3793 |  |
| B9 |  | 2.3398 |
| B10 | −3.2642 |  |
| B11 |  | 2.0891 |
| B12 | −3.4607 |  |
| B13 |  | 1.6607 |
| B14 |  | 2.8141 |
| B15 |  | 1.4176 |
| B16 |  | 1.8338 |
